Test: peptide synthesis
Details: conjugation step, analytical RP-HPLC (Waters Symmetry C18, 280 nm); SDS-PAGE

Amino acid sequences for entries named in this document (tags omitted). A change or cut given only in a name is not applied to a line headed by its entry.
UniProt P32194: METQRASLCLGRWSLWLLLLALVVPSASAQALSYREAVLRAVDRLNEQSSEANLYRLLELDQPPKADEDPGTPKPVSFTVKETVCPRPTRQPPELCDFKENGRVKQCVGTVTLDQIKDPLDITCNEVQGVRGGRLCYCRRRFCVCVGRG

| Substance | final HPLC purity |
| --- | --- |
| ALD40K-PG-1 (RGGRLCYCRRRFCVCVGR; Protegrin-1 mPEG2-butyraldehyde 40K; UniProt P32194 131-148, looked up) | 96.2% |
| [mono]-[4,7-CG-PEG2-FMOC-NHS-40K]-[protegrin-1] (RGGRLCYCRRRFCVCVGR; Protegrin-1 releasable CG-PEG2-FMOC 40K PEG; UniProt P32194 131-148, looked up) | 99.8% |

From US20110166063A1 (priority 2008, published 2011)
